Values from PubChem BioAssay AID1159584 (Peter MacCallum Cancer Centre, 2016)
This is a random part of about 18,000 deposited reagents. Reagent sequences are not shown. The record does not give: the amount of reagent, the time to read-out.

Assay: 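Genes that CDH1-null MCF10A cells selectively depend on to survive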 (primary screen)
Cells: human MCF10A breast epithelial cells, parental and CDH1-null
Reagent: siRNA against human genes
Read-out: 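ATP luminescence (CellTiter-Glo) viability per line relative to mean mock wells over all plates, and the ratio of CDH1-null to parental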
Scale: CDH1-null / parental viability ratio: higher = CDH1-null cells survive relatively better than parental; CDH1-null viability vs mock: higher = more viable CDH1-null cells; parental viability vs mock: higher = more viable parental cells

| Gene | CDH1-null / parental viability ratio | CDH1-null viability vs mock (fraction of mock) | parental viability vs mock (fraction of mock) |
| --- | --- | --- | --- |
| KLHL36 | 1 | 0.78 | 0.78 |
| RECK | 1.23 | 0.95 | 0.77 |
| SYT8 | 0.98 | 0.8 | 0.82 |
| ARL6 | 1.13 | 0.97 | 0.86 |
| ESRRG | 1.16 | 0.86 | 0.74 |
| ASPHD2 | 0.91 | 0.72 | 0.79 |
| PRDM2 | 1.04 | 0.98 | 0.94 |
| NETO2 | 1.05 | 0.9 | 0.86 |
| AAR2 | 0.89 | 0.72 | 0.81 |
| FAM220A | 1.06 | 1 | 0.94 |
| AGPAT5 | 1.11 | 0.91 | 0.82 |
| MEF2C | 0.98 | 1 | 1.02 |
| PRADC1 | 1.32 | 0.79 | 0.6 |
| DKK1 | 1.16 | 1 | 0.86 |
| GGCT | 1.18 | 0.93 | 0.79 |
| SIRAL2 | 1.19 | 0.44 | 0.37 |
| KCNH6 | 1.39 | 0.92 | 0.66 |
| USP9Y | 1.26 | 1.1 | 0.87 |
| TMEM135 | 0.95 | 0.93 | 0.98 |
| SPATA4 | 0.77 | 0.76 | 0.99 |
| ROPN1L | 1.02 | 0.87 | 0.85 |
| WDR35 | 0.91 | 0.92 | 1.01 |
| KRT28 | 0.97 | 0.9 | 0.93 |
| DIP2B | 0.8 | 0.44 | 0.55 |
| CCDC71 | 0.93 | 0.83 | 0.89 |
| CHD4 | 0.65 | 0.6 | 0.93 |
| CFAP69 | 1.12 | 0.9 | 0.8 |
| CHUK | 0.92 | 0.94 | 1.02 |
| MAPK4 | 0.88 | 0.85 | 0.97 |
| NTAN1 | 1.12 | 1.04 | 0.93 |
| ZNF398 | 0.99 | 0.92 | 0.93 |
| ANXA8 | 1.48 | 0.92 | 0.62 |
| KRT73 | 0.99 | 0.84 | 0.85 |
| CFC1B | 0.85 | 0.68 | 0.8 |
| CLK4 | 1.07 | 0.88 | 0.82 |
| RBMY1J | 0.79 | 0.68 | 0.86 |
| LURAP1L | 0.9 | 0.91 | 1.01 |
| CCL17 | 1.21 | 0.34 | 0.28 |
| NUF2 | 1.48 | 0.46 | 0.31 |
| USP49 | 0.98 | 0.5 | 0.51 |
| SNAPIN | 1.23 | 0.86 | 0.7 |
| AKAP12 | 1.09 | 0.74 | 0.68 |
| SGPP1 | 1.3 | 0.9 | 0.69 |
| ASF1A | 0.82 | 0.78 | 0.95 |
| SLC22A6 | 1.04 | 0.77 | 0.74 |
| RNASE3 | 0.79 | 0.74 | 0.94 |

Reformatted: entries from further up.
FAM220A | CDH1-null / parental viability ratio: 1.06; CDH1-null viability vs mock (fraction of mock): 1; parental viability vs mock (fraction of mock): 0.94
AGPAT5 | CDH1-null / parental viability ratio: 1.11; CDH1-null viability vs mock (fraction of mock): 0.91; parental viability vs mock (fraction of mock): 0.82
MEF2C | CDH1-null / parental viability ratio: 0.98; CDH1-null viability vs mock (fraction of mock): 1; parental viability vs mock (fraction of mock): 1.02
PRADC1 | CDH1-null / parental viability ratio: 1.32; CDH1-null viability vs mock (fraction of mock): 0.79; parental viability vs mock (fraction of mock): 0.6
DKK1 | CDH1-null / parental viability ratio: 1.16; CDH1-null viability vs mock (fraction of mock): 1; parental viability vs mock (fraction of mock): 0.86
